Source: doi:10.1101/2020.04.10.035014 (bioRxiv, 2020)
These are yes or no findings as the source states them, for the method shown. For some of these results: Binding seen in cells or lysates may run through a third protein. Some entries that bind do so weakly or less than the wild type. Each block holds one molecule with its values, some of them ahead of it.

The chains behind the UniProt entries cited, without tags or fusion partners. Where a name states a change or a piece, a line headed by the entry shows the natural chain unless it says otherwise. Residues count along the entry.
UniProt Q68E01, whole entry: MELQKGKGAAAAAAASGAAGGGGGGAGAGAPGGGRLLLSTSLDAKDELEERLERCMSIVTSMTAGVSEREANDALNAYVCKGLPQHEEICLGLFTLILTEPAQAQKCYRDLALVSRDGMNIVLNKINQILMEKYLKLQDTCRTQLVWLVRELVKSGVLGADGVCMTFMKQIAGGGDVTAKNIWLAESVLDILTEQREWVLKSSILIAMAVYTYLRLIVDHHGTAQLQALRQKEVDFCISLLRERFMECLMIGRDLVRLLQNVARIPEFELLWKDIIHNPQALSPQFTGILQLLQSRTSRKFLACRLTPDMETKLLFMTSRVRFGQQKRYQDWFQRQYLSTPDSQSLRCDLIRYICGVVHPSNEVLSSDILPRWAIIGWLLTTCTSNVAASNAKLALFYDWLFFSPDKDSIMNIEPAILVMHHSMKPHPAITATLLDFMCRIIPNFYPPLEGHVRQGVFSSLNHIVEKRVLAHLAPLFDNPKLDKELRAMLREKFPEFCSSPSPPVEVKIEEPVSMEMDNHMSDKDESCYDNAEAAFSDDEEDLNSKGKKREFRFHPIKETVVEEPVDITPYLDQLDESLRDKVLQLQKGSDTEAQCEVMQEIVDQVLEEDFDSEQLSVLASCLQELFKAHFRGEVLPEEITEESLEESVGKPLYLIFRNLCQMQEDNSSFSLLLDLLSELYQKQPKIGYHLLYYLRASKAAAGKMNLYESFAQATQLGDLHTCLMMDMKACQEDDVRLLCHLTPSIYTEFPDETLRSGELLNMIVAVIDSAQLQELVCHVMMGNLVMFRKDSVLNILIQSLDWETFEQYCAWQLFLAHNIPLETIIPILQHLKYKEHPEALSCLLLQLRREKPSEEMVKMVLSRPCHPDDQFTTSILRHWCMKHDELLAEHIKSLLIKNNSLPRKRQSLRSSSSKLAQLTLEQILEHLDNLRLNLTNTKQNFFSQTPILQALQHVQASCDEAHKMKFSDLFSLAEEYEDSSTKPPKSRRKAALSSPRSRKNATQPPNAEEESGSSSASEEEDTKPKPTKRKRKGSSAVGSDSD
UniProt Q68E01, 1-500: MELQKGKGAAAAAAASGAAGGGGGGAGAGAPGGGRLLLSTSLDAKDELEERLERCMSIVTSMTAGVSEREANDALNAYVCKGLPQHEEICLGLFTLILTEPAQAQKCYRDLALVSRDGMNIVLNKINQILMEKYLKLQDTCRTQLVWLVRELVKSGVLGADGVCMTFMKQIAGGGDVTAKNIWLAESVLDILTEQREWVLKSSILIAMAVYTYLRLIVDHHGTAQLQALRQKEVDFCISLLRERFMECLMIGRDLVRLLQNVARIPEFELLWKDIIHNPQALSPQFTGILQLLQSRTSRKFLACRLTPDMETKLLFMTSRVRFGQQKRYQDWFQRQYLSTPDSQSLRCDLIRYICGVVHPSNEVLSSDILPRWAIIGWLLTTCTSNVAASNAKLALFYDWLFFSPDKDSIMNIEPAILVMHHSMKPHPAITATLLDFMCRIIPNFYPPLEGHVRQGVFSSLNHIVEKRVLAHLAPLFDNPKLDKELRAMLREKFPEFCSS

Key:
[1] = target: INTS3(1-500) (human) (UniProt Q68E01); assay: SEC
[2] = target: C-terminus of INTS3 (INTS3c; residues 560-905 and 915-995, co-expressed) (human) (UniProt Q68E01); assay: pull-down
[3] = target: SFB-tagged wild-type full length INTS3 (human) (UniProt Q68E01); assay: co-IP
[4] = target: full length INTS6 F858A/K859A mutant (human) (UniProt Q9UL03); assay: co-IP
[5] = target: full length wild-type INTS6 of the co-immunoprecipitation of Fig. 2E (human) (UniProt Q9UL03); assay: co-IP
[6] = target: INTS3c F806A/E839A mutant (human) (UniProt Q68E01); assay: pull-down
[7] = target: INTS3c V767A/D769A mutant (human) (UniProt Q68E01); assay: pull-down

Molecule: INTS6c F858A/K859A mutant (from UniProt Q9UL03 800-887) (domain or fragment)
binding [2]: no binding

Molecule: Myc-tagged full length INTS6 (from UniProt Q9UL03 1-887)
binding [3]: binds

B1: C-terminus of INTS6 (INTS6c; residues 800-887) (domain or fragment, human, UniProt Q9UL03 800-887, looked up)
chain: MHCRSHEEVNTELKAQIMKEIRKPGRKYERIFTLLKHVQGSLQTRLIFLQNVIKEASRFKKRMLIEQLENFLDEIHRRANQINHINSN
binding [6]: no binding
binding [7]: no binding

The remaining lines, values ahead:

binding [1]: no binding
Molecule: INTS3(1-500) (from UniProt Q68E01 1-500) (domain or fragment)

binding [4]: binds weakly
binding [5]: binds
Molecule: full length INTS3 of the co-immunoprecipitation of Fig. 2E (from UniProt Q68E01 1-1043)
